Results taken from the supplement of paper PMC12823440, “Inhibitors supercharge kinase turnover through native proteolytic circuits” (Nature, 2025).
The list shows a part of the results. Hit calls seldom repeat between salt and free forms of one compound.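 Kinases were expressed as nanoluciferase fusions in K562 cells and luminescence was read every 4 h between 2 and 18 h as percent of control, DMSO set to 100% and a positive control to 0%. A time point counts as decreased when the signal drops significantly (2 sigma). The hit call is the authors' own, does not follow from the count of time points alone, and its rule is not shown.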

Protein sequences, listed by entry. Tags and fused reporters are not part of them. Lines headed by an entry give the natural chain unless they say otherwise; changes in a name come on top.
UniProt Q9Y616: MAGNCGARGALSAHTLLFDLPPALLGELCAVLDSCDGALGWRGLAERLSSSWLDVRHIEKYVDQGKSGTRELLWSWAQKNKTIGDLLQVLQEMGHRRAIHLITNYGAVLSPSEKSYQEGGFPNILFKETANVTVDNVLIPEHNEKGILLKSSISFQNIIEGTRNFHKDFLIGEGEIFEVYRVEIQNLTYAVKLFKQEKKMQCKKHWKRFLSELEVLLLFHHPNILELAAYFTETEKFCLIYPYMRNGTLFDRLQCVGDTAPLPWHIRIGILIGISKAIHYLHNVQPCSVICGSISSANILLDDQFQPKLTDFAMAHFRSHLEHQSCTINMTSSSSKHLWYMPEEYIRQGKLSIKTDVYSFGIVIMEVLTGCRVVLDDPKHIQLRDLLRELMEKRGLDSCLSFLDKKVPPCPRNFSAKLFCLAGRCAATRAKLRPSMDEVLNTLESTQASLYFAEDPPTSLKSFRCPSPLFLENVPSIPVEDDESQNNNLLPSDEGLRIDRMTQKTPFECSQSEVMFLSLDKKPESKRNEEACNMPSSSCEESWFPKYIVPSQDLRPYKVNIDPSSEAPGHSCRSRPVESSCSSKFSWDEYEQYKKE
UniProt P31749: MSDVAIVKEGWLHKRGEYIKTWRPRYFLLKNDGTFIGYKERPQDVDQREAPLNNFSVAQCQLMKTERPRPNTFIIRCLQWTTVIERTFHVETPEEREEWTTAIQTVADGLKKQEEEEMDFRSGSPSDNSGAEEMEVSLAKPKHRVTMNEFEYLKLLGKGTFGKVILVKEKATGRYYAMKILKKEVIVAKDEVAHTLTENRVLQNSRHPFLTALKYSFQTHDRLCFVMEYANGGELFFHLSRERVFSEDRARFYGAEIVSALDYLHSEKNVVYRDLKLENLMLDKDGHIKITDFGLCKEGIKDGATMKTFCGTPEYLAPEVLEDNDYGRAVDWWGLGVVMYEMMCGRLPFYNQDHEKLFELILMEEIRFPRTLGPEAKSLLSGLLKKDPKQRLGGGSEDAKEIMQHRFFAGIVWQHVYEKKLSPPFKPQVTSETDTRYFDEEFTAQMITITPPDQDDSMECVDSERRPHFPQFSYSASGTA
UniProt Q15208: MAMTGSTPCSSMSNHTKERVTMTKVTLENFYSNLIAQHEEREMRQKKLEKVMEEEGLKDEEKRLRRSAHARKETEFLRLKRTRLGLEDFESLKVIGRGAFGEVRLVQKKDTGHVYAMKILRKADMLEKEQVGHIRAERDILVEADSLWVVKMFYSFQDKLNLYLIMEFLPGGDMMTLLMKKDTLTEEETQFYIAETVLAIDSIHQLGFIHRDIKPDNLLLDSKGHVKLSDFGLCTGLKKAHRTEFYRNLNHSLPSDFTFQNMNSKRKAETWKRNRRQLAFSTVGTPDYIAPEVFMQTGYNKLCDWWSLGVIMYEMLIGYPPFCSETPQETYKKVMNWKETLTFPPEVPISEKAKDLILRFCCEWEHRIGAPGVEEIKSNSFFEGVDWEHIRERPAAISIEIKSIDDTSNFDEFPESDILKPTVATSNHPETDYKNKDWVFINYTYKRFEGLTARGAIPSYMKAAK
UniProt P06241, whole entry, looked up: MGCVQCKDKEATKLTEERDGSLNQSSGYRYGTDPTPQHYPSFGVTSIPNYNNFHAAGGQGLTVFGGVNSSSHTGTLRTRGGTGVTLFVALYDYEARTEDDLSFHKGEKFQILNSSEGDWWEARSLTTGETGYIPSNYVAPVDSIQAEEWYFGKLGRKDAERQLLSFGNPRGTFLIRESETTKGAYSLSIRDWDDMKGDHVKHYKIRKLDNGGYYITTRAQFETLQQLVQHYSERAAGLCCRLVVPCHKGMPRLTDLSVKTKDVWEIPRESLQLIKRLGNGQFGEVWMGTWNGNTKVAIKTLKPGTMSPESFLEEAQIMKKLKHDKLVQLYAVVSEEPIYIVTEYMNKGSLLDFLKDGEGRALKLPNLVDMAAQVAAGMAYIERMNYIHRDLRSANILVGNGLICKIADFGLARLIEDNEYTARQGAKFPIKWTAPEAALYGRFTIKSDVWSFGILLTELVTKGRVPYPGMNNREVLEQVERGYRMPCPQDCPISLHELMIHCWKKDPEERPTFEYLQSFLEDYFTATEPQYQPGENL
UniProt Q15303, whole entry R711C: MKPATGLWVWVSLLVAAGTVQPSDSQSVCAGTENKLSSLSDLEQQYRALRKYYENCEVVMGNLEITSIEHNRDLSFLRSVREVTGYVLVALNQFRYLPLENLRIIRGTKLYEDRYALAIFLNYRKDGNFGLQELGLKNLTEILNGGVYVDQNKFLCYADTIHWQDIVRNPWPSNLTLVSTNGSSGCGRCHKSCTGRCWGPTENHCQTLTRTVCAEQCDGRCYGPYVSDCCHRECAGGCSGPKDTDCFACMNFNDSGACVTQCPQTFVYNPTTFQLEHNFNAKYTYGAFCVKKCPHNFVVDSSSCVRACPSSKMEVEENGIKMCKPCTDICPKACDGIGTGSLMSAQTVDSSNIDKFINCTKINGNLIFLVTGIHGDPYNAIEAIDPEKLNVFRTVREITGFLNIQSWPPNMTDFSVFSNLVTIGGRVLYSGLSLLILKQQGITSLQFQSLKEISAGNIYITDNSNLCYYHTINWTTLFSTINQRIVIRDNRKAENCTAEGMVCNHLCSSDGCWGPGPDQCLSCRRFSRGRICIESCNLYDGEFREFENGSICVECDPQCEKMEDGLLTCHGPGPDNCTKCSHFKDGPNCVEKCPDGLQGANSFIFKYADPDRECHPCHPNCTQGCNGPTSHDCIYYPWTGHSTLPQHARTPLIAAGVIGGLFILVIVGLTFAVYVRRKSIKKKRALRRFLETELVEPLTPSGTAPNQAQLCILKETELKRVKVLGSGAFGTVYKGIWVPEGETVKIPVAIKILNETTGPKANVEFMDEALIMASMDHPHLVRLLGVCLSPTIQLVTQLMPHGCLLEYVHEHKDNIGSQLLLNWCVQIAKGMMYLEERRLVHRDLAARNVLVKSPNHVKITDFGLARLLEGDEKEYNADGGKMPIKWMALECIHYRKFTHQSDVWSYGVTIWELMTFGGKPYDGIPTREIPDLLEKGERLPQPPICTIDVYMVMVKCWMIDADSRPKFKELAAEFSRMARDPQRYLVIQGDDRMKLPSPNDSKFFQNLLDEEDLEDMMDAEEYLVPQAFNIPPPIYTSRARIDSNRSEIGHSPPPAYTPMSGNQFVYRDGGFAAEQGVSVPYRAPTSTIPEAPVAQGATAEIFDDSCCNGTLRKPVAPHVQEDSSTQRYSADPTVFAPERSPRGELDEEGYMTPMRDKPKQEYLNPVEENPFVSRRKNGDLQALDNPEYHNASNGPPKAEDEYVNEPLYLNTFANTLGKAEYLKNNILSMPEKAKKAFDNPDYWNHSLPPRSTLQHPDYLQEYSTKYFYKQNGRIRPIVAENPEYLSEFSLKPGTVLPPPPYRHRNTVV
UniProt Q01974, whole entry: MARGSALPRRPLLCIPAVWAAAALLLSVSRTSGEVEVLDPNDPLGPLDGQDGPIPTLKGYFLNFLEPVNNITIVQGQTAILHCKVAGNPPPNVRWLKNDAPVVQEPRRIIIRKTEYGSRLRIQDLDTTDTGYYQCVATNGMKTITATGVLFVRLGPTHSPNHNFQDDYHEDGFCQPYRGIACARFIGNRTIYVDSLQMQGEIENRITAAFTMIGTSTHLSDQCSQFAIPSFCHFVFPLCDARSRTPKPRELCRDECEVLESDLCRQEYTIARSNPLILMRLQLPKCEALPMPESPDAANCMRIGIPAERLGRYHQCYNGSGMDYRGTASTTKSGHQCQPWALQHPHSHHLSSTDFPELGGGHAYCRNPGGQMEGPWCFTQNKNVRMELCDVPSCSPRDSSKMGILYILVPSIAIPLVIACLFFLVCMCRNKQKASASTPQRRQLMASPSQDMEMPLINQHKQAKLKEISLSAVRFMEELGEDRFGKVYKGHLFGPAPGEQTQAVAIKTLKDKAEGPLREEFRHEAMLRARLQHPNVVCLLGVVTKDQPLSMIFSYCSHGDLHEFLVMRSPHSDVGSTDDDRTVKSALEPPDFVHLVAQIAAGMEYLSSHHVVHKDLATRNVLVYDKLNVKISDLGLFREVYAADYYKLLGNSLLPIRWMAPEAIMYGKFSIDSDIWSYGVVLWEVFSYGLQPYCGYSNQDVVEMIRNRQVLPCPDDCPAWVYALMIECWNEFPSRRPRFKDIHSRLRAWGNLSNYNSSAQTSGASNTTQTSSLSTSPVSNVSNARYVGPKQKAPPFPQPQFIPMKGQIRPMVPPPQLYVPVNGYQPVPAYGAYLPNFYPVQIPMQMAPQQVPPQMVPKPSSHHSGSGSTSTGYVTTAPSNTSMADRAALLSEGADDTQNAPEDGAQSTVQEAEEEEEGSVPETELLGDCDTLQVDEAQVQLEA
UniProt P21860, whole entry: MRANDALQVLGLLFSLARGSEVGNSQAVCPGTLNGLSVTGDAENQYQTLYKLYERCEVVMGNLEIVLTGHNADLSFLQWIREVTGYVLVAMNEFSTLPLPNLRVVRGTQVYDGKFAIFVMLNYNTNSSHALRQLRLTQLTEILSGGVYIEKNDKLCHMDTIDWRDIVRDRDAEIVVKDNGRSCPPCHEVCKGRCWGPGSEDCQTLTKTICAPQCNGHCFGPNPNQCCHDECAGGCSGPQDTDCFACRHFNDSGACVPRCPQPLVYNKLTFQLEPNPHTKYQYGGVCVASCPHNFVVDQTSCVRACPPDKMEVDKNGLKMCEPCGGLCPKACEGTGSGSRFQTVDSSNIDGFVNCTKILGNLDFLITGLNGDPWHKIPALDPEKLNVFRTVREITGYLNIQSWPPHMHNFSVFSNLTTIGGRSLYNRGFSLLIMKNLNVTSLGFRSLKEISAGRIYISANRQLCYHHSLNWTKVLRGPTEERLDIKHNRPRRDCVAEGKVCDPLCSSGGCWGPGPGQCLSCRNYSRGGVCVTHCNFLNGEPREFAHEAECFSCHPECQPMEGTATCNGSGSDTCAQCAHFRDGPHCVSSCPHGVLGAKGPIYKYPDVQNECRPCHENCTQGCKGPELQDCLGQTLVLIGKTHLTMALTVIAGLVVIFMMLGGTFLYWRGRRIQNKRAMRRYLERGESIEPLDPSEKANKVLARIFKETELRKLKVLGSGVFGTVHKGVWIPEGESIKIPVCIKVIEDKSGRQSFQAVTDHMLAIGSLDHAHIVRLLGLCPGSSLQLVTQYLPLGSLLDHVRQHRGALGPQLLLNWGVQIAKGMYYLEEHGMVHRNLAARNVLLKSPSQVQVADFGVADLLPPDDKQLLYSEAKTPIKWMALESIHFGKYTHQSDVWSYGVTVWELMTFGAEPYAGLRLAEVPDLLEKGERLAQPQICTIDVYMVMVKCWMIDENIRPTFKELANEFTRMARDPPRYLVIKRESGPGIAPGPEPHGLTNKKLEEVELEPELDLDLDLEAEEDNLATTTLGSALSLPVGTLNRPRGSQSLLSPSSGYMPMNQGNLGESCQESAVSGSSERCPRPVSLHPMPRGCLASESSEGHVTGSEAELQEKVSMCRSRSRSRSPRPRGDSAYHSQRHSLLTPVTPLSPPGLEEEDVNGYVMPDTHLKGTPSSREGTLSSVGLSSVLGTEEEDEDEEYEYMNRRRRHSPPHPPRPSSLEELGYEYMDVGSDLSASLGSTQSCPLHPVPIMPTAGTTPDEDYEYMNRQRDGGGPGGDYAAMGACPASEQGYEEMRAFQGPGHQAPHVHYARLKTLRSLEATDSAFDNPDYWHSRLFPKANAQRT
UniProt P11362, whole entry, looked up: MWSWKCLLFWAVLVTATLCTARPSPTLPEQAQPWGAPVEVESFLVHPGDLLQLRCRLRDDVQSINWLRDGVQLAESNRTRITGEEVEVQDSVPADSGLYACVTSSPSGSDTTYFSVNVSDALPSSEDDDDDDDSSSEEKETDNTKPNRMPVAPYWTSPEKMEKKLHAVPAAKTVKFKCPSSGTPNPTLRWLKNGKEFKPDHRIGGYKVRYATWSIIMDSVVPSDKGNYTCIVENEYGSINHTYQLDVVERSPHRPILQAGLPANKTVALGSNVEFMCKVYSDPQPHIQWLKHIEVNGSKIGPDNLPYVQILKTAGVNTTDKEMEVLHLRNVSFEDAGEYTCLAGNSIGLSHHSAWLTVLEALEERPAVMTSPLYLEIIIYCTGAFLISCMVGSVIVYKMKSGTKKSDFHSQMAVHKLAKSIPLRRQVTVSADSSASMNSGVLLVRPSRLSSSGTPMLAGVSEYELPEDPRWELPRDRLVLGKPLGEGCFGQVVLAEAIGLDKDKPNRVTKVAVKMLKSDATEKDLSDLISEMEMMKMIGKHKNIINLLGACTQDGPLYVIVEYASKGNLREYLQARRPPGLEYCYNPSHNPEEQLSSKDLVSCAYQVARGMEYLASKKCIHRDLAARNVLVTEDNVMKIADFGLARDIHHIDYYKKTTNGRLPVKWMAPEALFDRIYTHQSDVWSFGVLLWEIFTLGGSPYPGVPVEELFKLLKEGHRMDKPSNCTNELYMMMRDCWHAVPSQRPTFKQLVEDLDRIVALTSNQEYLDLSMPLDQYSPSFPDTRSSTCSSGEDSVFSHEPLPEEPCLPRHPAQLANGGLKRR

What was measured:
Test in all cases: number of time points (of 5) at which kinase-Nluc abundance scored as decreased, DMSO-normalised (count); higher = more persistent destabilization
Umbralisib = compound: CC(C)Oc1ccc(-c2nn([C@@H](C)c3oc4ccc(F)cc4c(=O)c3-c3cccc(F)c3)c3ncnc(N)c23)cc1F [Umbralisib]; conditions: 2.5 µM; K562; 2-18 h
Bucladesine (calcium) = compound: CCCC(=O)Nc1ncnc2c1ncn2[C@@H]1O[C@@H]2COP(=O)(O)O[C@H]2[C@H]1OC(=O)CCC [Bucladesine (calcium)]; conditions: 10 µM; K562; 2-18 h
Bucladesine (sodium) = compound: CCCC(=O)Nc1ncnc2c1ncn2[C@@H]1O[C@@H]2COP(=O)(O)O[C@H]2[C@H]1OC(=O)CCC [Bucladesine (sodium)]; conditions: 10 µM; K562; 2-18 h
[1] = compound: CCCCCCCCc1ccc(CCC(N)(CO)CO)cc1 [Fingolimod (hydrochloride)]; conditions: 2.5 µM; K562; 2-18 h
Fingolimod = compound: CCCCCCCCc1ccc(CCC(N)(CO)CO)cc1 [Fingolimod]; conditions: 2.5 µM; K562; 2-18 h
[2] = compound: CCN(CC)CC(=O)Nc1c(C)cccc1C [Lidocaine (hydrochloride)]; conditions: 10 µM; K562; 2-18 h
Lidocaine = compound: CCN(CC)CC(=O)Nc1c(C)cccc1C [Lidocaine]; conditions: 10 µM; K562; 2-18 h
[3] = compound: CCN(CC)Cc1ccc(OC)c(-c2cc3c(-c4ccc(C(=O)O)c(C(C)C)c4)ccnc3[nH]2)c1; conditions: K562, 2-18 h
Baricitinib (phosphate) = compound: CCS(=O)(=O)N1CC(CC#N)(n2cc(-c3ncnc4[nH]ccc34)cn2)C1 [Baricitinib (phosphate)]; conditions: 10 µM; K562; 2-18 h
Baricitinib = compound: CCS(=O)(=O)N1CC(CC#N)(n2cc(-c3ncnc4[nH]ccc34)cn2)C1 [Baricitinib]; conditions: 10 µM; K562; 2-18 h
[4] = compound: CCS(=O)(=O)N1CCN(c2ccc(Nc3ncc(C(N)=O)c(NC4CC4)n3)cc2)CC1 [Cerdulatinib (hydrochloride)]; conditions: 10 µM; K562; 2-18 h
Cerdulatinib = compound: CCS(=O)(=O)N1CCN(c2ccc(Nc3ncc(C(N)=O)c(NC4CC4)n3)cc2)CC1 [Cerdulatinib]; conditions: 10 µM; K562; 2-18 h
[5] = compound: CCc1nc(C(N)=O)c(Nc2ccc(N3CCC(N4CCN(C)CC4)CC3)c(OC)c2)nc1NC1CCOCC1 [Gilteritinib hemifumarate]; conditions: 2 µM; K562; 2-18 h
Gilteritinib = compound: CCc1nc(C(N)=O)c(Nc2ccc(N3CCC(N4CCN(C)CC4)CC3)c(OC)c2)nc1NC1CCOCC1 [Gilteritinib]; conditions: 2 µM; K562; 2-18 h
[6] = compound: CN(C)C(=N)NC(=N)N [Metformin (hydrochloride)]; conditions: 10 µM; K562; 2-18 h
Metformin = compound: CN(C)C(=N)NC(=N)N [Metformin]; conditions: 10 µM; K562; 2-18 h
Ribociclib hydrochloride = compound: CN(C)C(=O)c1cc2cnc(Nc3ccc(N4CCNCC4)cn3)nc2n1C1CCCC1 [Ribociclib hydrochloride]; conditions: 2.5 µM; K562; 2-18 h
[7] = compound: CN(C)C(=O)c1cc2cnc(Nc3ccc(N4CCNCC4)cn3)nc2n1C1CCCC1 [Ribociclib succinate hydrate]; conditions: 2.5 µM; K562; 2-18 h
Ribociclib succinate = compound: CN(C)C(=O)c1cc2cnc(Nc3ccc(N4CCNCC4)cn3)nc2n1C1CCCC1 [Ribociclib succinate]; conditions: 10 µM; K562; 2-18 h
Ribociclib = compound: CN(C)C(=O)c1cc2cnc(Nc3ccc(N4CCNCC4)cn3)nc2n1C1CCCC1 [Ribociclib]; conditions: 10 µM; K562; 2-18 h

Target	number of time points (Umbralisib)	number of time points (Bucladesine (calcium))	number of time points (Bucladesine (sodium))	number of time points [1]	number of time points (Fingolimod)	number of time points [2]	number of time points (Lidocaine)	number of time points ([3]; 2.5 µM)	number of time points ([3]; 10 µM)	number of time points (Baricitinib (phosphate))	number of time points (Baricitinib)	number of time points [4]	number of time points (Cerdulatinib)	number of time points [5]	number of time points (Gilteritinib)	number of time points [6]	number of time points (Metformin)	number of time points (Ribociclib hydrochloride)	number of time points [7]	number of time points (Ribociclib succinate)	number of time points (Ribociclib)
IRAK3 (UniProt Q9Y616)	0	0	0	0	0	0	0	1	1	0	0	3	1	0	0	0	0	0	0	0	0
AKT1 (UniProt P31749)	0	0	0	0	1	0	0	0	0	0	0	0	0	0	0	0	0	0	0	0	0
EGFR_L858R (UniProt P00533)	0	0	0	0	0	0	0	0	0	0	0	2	0	0	0	0	0	0	0	0	0
EGFR_L861Q (UniProt P00533)	0	0	0	0	0	0	0	0	0	0	0	4	0	0	0	0	0	0	0	0	0
CDK3 (UniProt Q00526)	0	0	0	0	0	0	0	0	0	0	0	0	0	0	0	0	0	0	0	0	0
STK38 (UniProt Q15208)	0	0	0	0	0	0	0	0	0	0	0	1	0	0	0	0	0	0	0	0	0
CAMK2A (UniProt Q9UQM7)	0	0	0	0	0	0	0	0	0	0	0	0	0	0	0	0	0	0	0	0	0
FYN (UniProt P06241)	0	0	0	0	0	0	0	0	0	0	0	4	4	0	0	0	0	0	0	0	0
ERBB4_R711C (clone: ERBB4_mut) (UniProt Q15303)	0	0	0	0	0	0	0	0	0	0	0	4	0	0	0	0	0	0	0	0	0
ROR2 (UniProt Q01974)	0	0	0	0	0	0	0	0	0	0	0	0	0	0	0	0	0	0	0	0	0
GSK3A (UniProt P49840)	0	0	0	0	0	0	0	0	0	0	0	0	0	0	0	0	0	0	0	0	0
ERBB3 (UniProt P21860)	0	0	0	0	0	0	0	0	0	0	0	4	0	0	0	0	0	0	0	0	0
RIOK1 (UniProt Q9BRS2)	0	0	0	0	0	0	0	0	0	0	0	3	0	0	0	0	0	0	0	0	0
FGFR1 (UniProt P11362)	0	0	0	0	0	0	0	0	0	0	0	3	0	0	0	0	0	0	0	0	0

Limited to number of time points ([3]; 2.5 µM), for some of the entries so far:

| Target | number of time points ([3]; 2.5 µM) |
| --- | --- |
| CDK3 (UniProt Q00526) | 0 |
| STK38 (UniProt Q15208) | 0 |
